Earlier results as cited in patent US20250361227A1, “INHIBITORS OF FLI1 AND ERG” (UNIVERSITY OF VIRGINIA PATENT FOUNDATION, priority 2022, published 2025).

Test system: DNA
Conditions: cited from earlier work; for Stoichiometry / ΔG / ΔH / −TΔS: ITC, ERG construct binding to DNA, ±SE in cell beside; for Fold Inhibition: relative inhibition of DNA binding of ERG truncation constructs

Molecule	Stoichiometry	ΔG	ΔH	−TΔS	Fold Inhibition
289-412: ERG truncation construct, residues 289-412 (protein, UniProt P11308 289-412, looked up, fragment) QLDPYQILGPTSSRLANPGSGQIQLWQFLLELLSDSSNSSCITWEGTNGEFKMTDPDEVARRWGERKSKPNMNYDKLSRALRYYYDKNIMTKVHGKRYAYKFDFHGIAQALQPHPPESSLYKYP	0.98	-9670 cal/mol	5062 cal/mol	-14732 cal/mol	1.4
272-378: ERG truncation construct, residues 272-378 (protein, UniProt P11308 272-378, looked up, fragment) AAQPSPSTVPKTEDQRPQLDPYQILGPTSSRLANPGSGQIQLWQFLLELLSDSSNSSCITWEGTNGEFKMTDPDEVARRWGERKSKPNMNYDKLSRALRYYYDKNIM	0.99	-9914 cal/mol	4731 cal/mol	-14645 cal/mol	0.9
289-388: ERG truncation construct, residues 289-388 (protein, UniProt P11308 289-388, looked up, fragment) QLDPYQILGPTSSRLANPGSGQIQLWQFLLELLSDSSNSSCITWEGTNGEFKMTDPDEVARRWGERKSKPNMNYDKLSRALRYYYDKNIMTKVHGKRYAY	0.99	-9795 cal/mol	5024 cal/mol	-14819 cal/mol	1.1
289-378: the uninhibited DNA binding domain construct of ERG (289-378) (protein, UniProt P11308 289-378, looked up, fragment) QLDPYQILGPTSSRLANPGSGQIQLWQFLLELLSDSSNSSCITWEGTNGEFKMTDPDEVARRWGERKSKPNMNYDKLSRALRYYYDKNIM	1.04	-9852 cal/mol	4851 cal/mol	-14703 cal/mol	1.0
1-462: ERG construct, residues 1-462 (protein, UniProt P11308 1-462, looked up, fragment) MASTIKEALSVVSEDQSLFECAYGTPHLAKTEMTASSSSDYGQTSKMSPRVPQQDWLSQPPARVTIKMECNPSQVNGSRNSPDECSVAKGGKMVGSPDTVGMNYGSYMEEKHMPPPNMTTNERRVIVPADPTLWSTDHVRQWLEWAVKEYGLPDVNILLFQNIDGKELCKMTKDDFQRLTPSYNADILLSHLHYLRETPLPHLTSDDVDKALQNSPRLMHARNTGGAAFIFPNTSVYPEATQRITTRPDLPYEPPRRSAWTGHGHPTPQSKAAQPSPSTVPKTEDQRPQLDPYQILGPTSSRLANPGSGQIQLWQFLLELLSDSSNSSCITWEGTNGEFKMTDPDEVARRWGERKSKPNMNYDKLSRALRYYYDKNIMTKVHGKRYAYKFDFHGIAQALQPHPPESSLYKYPSDLPYMGSYHAHPQKMNFVAPHPPALPVTSSSFFAAPNPYWNSPTGGIYP	1.05	-9164 cal/mol	4205 cal/mol	-13369 cal/mol	3.3
210-462: ERG truncation construct, residues 210-462 (protein, UniProt P11308 210-462, looked up, fragment) KALQNSPRLMHARNTGGAAFIFPNTSVYPEATQRITTRPDLPYEPPRRSAWTGHGHPTPQSKAAQPSPSTVPKTEDQRPQLDPYQILGPTSSRLANPGSGQIQLWQFLLELLSDSSNSSCITWEGTNGEFKMTDPDEVARRWGERKSKPNMNYDKLSRALRYYYDKNIMTKVHGKRYAYKFDFHGIAQALQPHPPESSLYKYPSDLPYMGSYHAHPQKMNFVAPHPPALPVTSSSFFAAPNPYWNSPTGGIYP	1.1	-9269 cal/mol	4303 cal/mol	-13572 cal/mol	2.8
272-412: ERG truncation construct, residues 272-412 (protein, UniProt P11308 272-412, looked up, fragment) AAQPSPSTVPKTEDQRPQLDPYQILGPTSSRLANPGSGQIQLWQFLLELLSDSSNSSCITWEGTNGEFKMTDPDEVARRWGERKSKPNMNYDKLSRALRYYYDKNIMTKVHGKRYAYKFDFHGIAQALQPHPPESSLYKYP	0.94	-9281 cal/mol	4900 cal/mol	-14181 cal/mol	2.7
272-388: the auto-inhibited construct of ERG (272-388) (protein, UniProt P11308 272-388, looked up, fragment) AAQPSPSTVPKTEDQRPQLDPYQILGPTSSRLANPGSGQIQLWQFLLELLSDSSNSSCITWEGTNGEFKMTDPDEVARRWGERKSKPNMNYDKLSRALRYYYDKNIMTKVHGKRYAY	0.98	-8967 cal/mol	4924 cal/mol	-13891 cal/mol	4.8
